# Several values for one entry are separate records, joined by “and”; a condition that tells them apart may be missing. Equal entries are not always repeated. Hit rate of the full screen: of about 310,000 compounds, about 17,000 (5.5%) were called active. This list was built around the results that the source calls inconclusive (neither active nor inactive); the mix of calls is not that of the screen. Calls follow the shape of the dose curve; as a rule, active = well fitted inhibition curve with a large enough effect; inconclusive = small, poorly fitted or top-dose-only effect, or effect the other way; inactive = no such curve, though single readings can be large or run the other way. Potencies of inconclusive entries are doubtful fits and often do not repeat.
# Sequences of proteins named here, by UniProt entry; tags and fusion partners are left off. A change or cut given only in a name is not applied to a line headed by its entry.
# UniProt P51450: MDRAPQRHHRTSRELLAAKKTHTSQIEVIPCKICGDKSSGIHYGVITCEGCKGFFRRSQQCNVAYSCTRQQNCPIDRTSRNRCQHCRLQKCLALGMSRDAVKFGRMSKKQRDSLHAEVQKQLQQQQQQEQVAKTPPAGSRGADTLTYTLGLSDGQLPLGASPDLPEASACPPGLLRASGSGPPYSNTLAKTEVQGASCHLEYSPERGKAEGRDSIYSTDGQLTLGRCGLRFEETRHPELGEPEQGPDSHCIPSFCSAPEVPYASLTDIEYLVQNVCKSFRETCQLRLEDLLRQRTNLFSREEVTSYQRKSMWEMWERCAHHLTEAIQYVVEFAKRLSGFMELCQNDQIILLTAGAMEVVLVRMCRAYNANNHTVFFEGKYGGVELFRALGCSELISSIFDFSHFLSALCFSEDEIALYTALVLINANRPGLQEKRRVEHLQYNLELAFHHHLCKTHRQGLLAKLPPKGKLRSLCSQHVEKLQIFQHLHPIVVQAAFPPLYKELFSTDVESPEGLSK
# Target: Nuclear receptor ROR-gamma (Mus musculus) (UniProt P51450)
# Test: qHTS for inhibitors of ROR gamma transcriptional activity; also: nearly all actives have a fitted effect of over 60% in size
# Settings: Drosophila S2 Gal4-RORgamma UAS-luciferase reporter, 20 h; activity change, negative = inhibition: at 53.6 µM (top of the series)
# In short: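 A Gal4/UAS one-hybrid system in insect cells: metallothionein-promoter Gal4–ROR gamma fusion plus Photinus luciferase reporter. Copper sulfate 700 uM final, 20 hr ambient incubation, luminescent detection after 10 min with reagent.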
# % is scaled to controls: 0 for no effect and ±100 for the full control effect; potency is read from the fitted curve at half-maximal effect.
Compound,Potency,"activity change, negative = inhibition"
Cc1cc2ccccn2c1C(=O)c1ccc(S(=O)(=O)N(C)C)cc1,"inconclusive: 12.6 µM [activator, partial curve]",
O=C(NCc1ccccc1)C1=C[C@H](c2ccc(C(F)(F)F)cc2)C[C@H](OCc2ccc(CO)cc2)O1,"inconclusive: 10 µM [activator, partial curve]",
COc1ccc(C2=NN(C(=O)c3cccs3)C(c3ccccc3O)C2)cc1 (configuration not stated),"inconclusive: 12.6 µM [activator, single point]",
N#C/C(=C\c1ccc(F)c(Br)c1)C(=O)NC1CC1,"inconclusive: 1.12 µM [activator, full curve, poor fit]",
Cc1cc(C)c(NC(=O)CSc2nc(COc3ccccc3)nc3ccccc23)c(C)c1,"inconclusive: 14.1 µM [inhibitor, single point]",
CN1CCCN(C(=O)c2ccc(Br)cc2)CC1,"inconclusive: 25.1 µM [inhibitor, single point]",
COc1ccc(C(=O)N2CCN(c3ccccc3)CC2)cc1S(=O)(=O)N1CCOCC1,,inactive: 4.54%
COc1ccccc1OCCNc1cc(N2CCOCC2)ccc1[N+](=O)[O-],"inconclusive: 14.1 µM [activator, partial curve]",
CN(CCOC(=O)c1ccc2c(c1)OCCO2)C(C)(C)C,"inconclusive: 12.6 µM [inhibitor, single point]",
c1ccc(-c2csc(N3CCCCCC3)n2)cc1,"inconclusive: 6.31 µM [activator, single point]",
O=c1c2nncn2c2cc(C(F)(F)F)ccc2n1CCNc1ncc(C(F)(F)F)cc1Cl,,inactive: -9.83%
O=C(NC(=S)Nc1ccc(Cc2ccncc2)cc1)c1ccccc1Cl,"inconclusive: 35.5 µM [inhibitor, single point]",
CCCn1nnc(NC(=O)c2ccc(-c3cc(Cl)ccc3Cl)o2)n1,"inconclusive: 2.51 µM [inhibitor, partial curve]",
Cc1ccc(NC(=S)N(Cc2ccccc2)C(C)C)cc1,active: 10 µM,
Cc1cc(Cl)ccc1Oc1nccc(N(C)C)c1C#N,"inconclusive: 15.8 µM [activator, single point]",
Fc1ccc(-n2c(-c3ccco3)n[nH]c2=S)cc1,"inconclusive: 12.6 µM [inhibitor, partial curve, poor fit]",
COc1ccc(-c2cc(C(=O)NNC(=S)NC(=O)c3c(-c4ccccc4)noc3C)[nH]n2)cc1,"inconclusive: 25.1 µM [inhibitor, single point]",
O=C(Cn1c(=S)[nH]c2ccccc21)c1ccccc1,active: 10 µM,
S=C(NCc1ccncc1)Nc1ccc(Cl)cc1,"inconclusive: 12.6 µM [activator, partial curve]",
CC1=NN(Cc2c(C)nn(Cc3ccccc3)c2C)C(C)(C)C1,active: 12.6 µM,
COc1ccc(NC(=O)CN(c2ccc(OC)c(Cl)c2)S(=O)(=O)c2ccccc2)c(OC)c1,"inconclusive: 20 µM [activator, partial curve, poor fit]",
Cc1ccc(CN2C(=O)N/C(=C\c3cccn3-c3cccc(C(=O)O)c3)C2=O)cc1,"inconclusive: 11.2 µM [activator, partial curve]",
Cc1ccc(C)c(Cn2nnc3c(=O)[nH]c(C4CCN(S(=O)(=O)c5ccc(S(=O)(=O)N(C)C)cc5)CC4)nc32)c1,"inconclusive: 10 µM [activator, partial curve]",
O=C(NNC(=O)c1cc(-c2ccc(Cl)cc2Cl)nc2ccccc12)Nc1ccccc1,"inconclusive: 11.2 µM [activator, partial curve]",

# Shown bar-delimited: part of the list above
Compound | Potency | activity change, negative = inhibition
COc1ccc(-c2cc(C(=O)NNC(=S)NC(=O)c3c(-c4ccccc4)noc3C)[nH]n2)cc1 | inconclusive: 25.1 µM [inhibitor, single point] | 
O=C(NNC(=O)c1cc(-c2ccc(Cl)cc2Cl)nc2ccccc12)Nc1ccccc1 | inconclusive: 11.2 µM [activator, partial curve] | 

# More records

Compound,Potency,"activity change, negative = inhibition"
CC(=O)N(c1nc(CCl)cs1)c1c(C)cc(C)cc1C,,inactive: 11.2%
Cc1csc(/C(=N\O)c2csc(C)n2)n1,active: 2.82 µM,
c1coc(CNc2nc(-c3ccncc3)cs2)c1,"inconclusive: 22.4 µM [activator, single point]",
CCn1cc(CCC(=O)NCc2ccccc2OC)c2ccccc21,"inconclusive: 20 µM [activator, single point]",
CCC(CC)c1nnc(NC(=O)c2ccc3c(c2)OCO3)s1,"inconclusive: 12.6 µM [inhibitor, partial curve]",
Cc1cc(C)cc(-n2c(SCC(=O)NCc3ccco3)nc3ccccc3c2=O)c1,"inconclusive: 28.2 µM [inhibitor, single point]",
Cc1cc(C2CCCCC2)n(O)c(=O)c1,active: 501 nM and active: 2 µM,
CCOc1ccc(N(C(C)C(=O)N/N=C(\C)c2cccc(NC(=O)c3ccccc3)c2)S(C)(=O)=O)cc1 (configuration not stated),"inconclusive: 31.6 µM [activator, single point]",
O=C(Nc1ccc(Cl)cc1)N1CCC(c2nc(-c3ccc(F)cc3)no2)CC1,"inconclusive: 35.5 µM [inhibitor, single point]",
CC(=O)NS(=O)(=O)c1ccc(N=NN2CCCCC2)cc1,"inconclusive: 7.08 µM [activator, partial curve, poor fit]",
CS(=O)(=O)N1CCC2(CC1)CN(C(=O)Nc1cccc(F)c1)C2,,inactive: 0.92%
COc1ccc(NC(=O)Nc2ccccc2F)cc1Cl,,inactive: 3.47%
Oc1ccc(/C=N/Nc2ccc(C(F)(F)F)cn2)cc1,active: 4.47 µM,
CCOC(=O)C1(Cc2ccccc2C)CCCN(C(=O)c2ccccn2)C1 (configuration not stated),,inactive: -10.2%
O=C(CN1CCN(c2ccccn2)CC1)Nc1nc2ccccc2s1,,inactive: 37.1%
C=CCNc1nnc(SC2CC(=O)N(c3ccc(OCCC)cc3)C2=O)s1 (configuration not stated),"inconclusive: 35.5 µM [inhibitor, single point]",
CCC/C=N/Nc1nnc(Cc2ccccc2)c(=O)[nH]1,"inconclusive: 22.4 µM [inhibitor, single point]",
Cc1cccc(OCCCC(=O)N2CCCc3ccccc32)c1C,"inconclusive: 10 µM [inhibitor, partial curve, poor fit]",
O=C(Cc1ccccc1)Nc1ccc(SC(F)F)cc1,"inconclusive: 3.55 µM [activator, full curve]",
N=c1c2c(-c3ccccc3)c(-c3ccccc3)n(Cc3ccco3)c2ncn1CCCn1ccnc1,"inconclusive: 17.8 µM [inhibitor, single point]",
Cc1cccc(-c2noc(-c3ccc(Cl)cc3[N+](=O)[O-])n2)c1,active: 2.51 µM,
C=C1C(=O)[C@]23[C@H](O)[C@H]1CC[C@H]2[C@@]12COC3(O)[C@H](O)[C@@H]1C(C)(C)CC[C@@H]2O,active: 3.16 µM,
Brc1ccc(CSc2nnc(-c3ccco3)o2)cc1,"inconclusive: 10 µM [activator, partial curve]",
CCn1c(NC(=S)Nc2ccccc2)nc2ccccc21,active: 4.47 µM,

Compound,Potency,"activity change, negative = inhibition"
CCOc1ccccc1NC(=S)NNS(=O)(=O)c1c(C)cc(C)cc1C,active: 10 µM,
Cc1cc(=O)n2c(-c3ccc(Cl)cc3)csc2n1,,inactive: -2.41%
CC1=C(C(=O)OC(C)C)C(c2cccc([N+](=O)[O-])c2)C(C(=O)OC2CN(C(c3ccccc3)c3ccccc3)C2)=C(N)N1 (configuration not stated),"inconclusive: 35.5 µM [activator, single point]",
O=C1CCOc2cc(OCc3ccccc3)ccc21,"inconclusive: 35.5 µM [inhibitor, single point]",
NC(N)=NNC(=O)c1ccccc1Cl,"inconclusive: 11.2 µM [inhibitor, single point]",
OCCN(Cc1ccccc1)Cc1ccccc1Cl,"inconclusive: 35.5 µM [activator, single point]",
COc1ccc(/C=C2\C(=O)NC(=S)N2C(=O)c2ccc(F)cc2)cc1,active: 8.91 µM,
O=C(Nc1cccc(Cl)c1)c1cccc(Oc2ccc([N+](=O)[O-])cc2Cl)c1,"inconclusive: 17.8 µM [activator, partial curve]",
COc1ccc(OC)c(C2C3=C(N=C4SCC(=O)N42)c2ccccc2CC3)c1 (configuration not stated),"inconclusive: 35.5 µM [inhibitor, single point]",
COc1cc(C(=O)NS(=O)(=O)c2ccccc2C)ccc1Cc1cn(C)c2ccc(NC(=O)OC3CCCC3)cc12,"inconclusive: 11.2 µM [activator, partial curve]",inactive: 33% [at 10 µM]
O=C(NC(=S)Nc1ccccc1N1CCCCC1)c1cccs1,active: 1.58 µM,
CC(CC(=O)Nc1ccc(Cl)c([N+](=O)[O-])c1)c1ccccc1 (configuration not stated),"inconclusive: 15.8 µM [activator, single point]",
COc1ccc2[nH]cc(CCNc3ccnc(-c4cccc(NS(C)(=O)=O)c4)n3)c2c1,,inactive: 22.9%
Cc1ccc(C(=O)CSc2nc3ccccc3o2)cc1,"inconclusive: 8.91 µM [activator, partial curve, poor fit]",
N#CC1=C(N)OC2=C(C(=O)CC(c3ccccc3)C2)C1c1ccoc1 (configuration not stated),"inconclusive: 10 µM [activator, partial curve]",
N/C(=N\OC(=O)COc1ccc(Cl)cc1Cl)c1ccccn1,active: 10 µM,
Cc1ccc(S(=O)(=O)CC(=O)c2ccccc2[N+](=O)[O-])cc1,,inactive: -0.0183%
CC(=O)Nc1ccc2c(c1)C(=O)c1ccccc1C2=O,"inconclusive: 6.31 µM [inhibitor, single point]",
COc1ccc(N2CCN(CCNC(=O)Nc3ccc([N+](=O)[O-])cc3OC)CC2)cc1,,inactive: 13.8%
COCCn1c(SCC(=O)N2CCCCCC2)nnc1-c1ccco1,,inactive: -14.6%
COc1ccc2c(C(=O)CN3CCSCC3)c[nH]c2c1,,inactive: 9.07%
CC(=O)c1cccc(NC(=O)N2CCc3ccccc3C2)c1,,inactive: 3.46%
O=C1NC(=S)N/C1=C/c1ccc(-c2c(Br)cc([N+](=O)[O-])cc2Br)o1,,inactive: 1.91%
